Test results published in publication PMC12892918.
No constants are given. Whether binding was seen depends on the method and setting. In cells and extracts the contact can be indirect. A yes stands for co-enrichment or nearness to the bait. Other partners may have been found.

Molecular target: RCOR1 (human (endogenous in 1205Lu, 451Lu and SKMEL5)) (UniProt Q9UKL0)
Assay: affinity purification with mass spectrometry; IP of endogenous LSD1 or RCOR1 from 1205Lu and 451Lu melanoma cells (DMSO control), LC-MS/MS, in duplicate

binding: binds
B1: CTCF (protein, UniProt P49711 1-727)
chain: MEGDAVEAIVEESETFIKGKERKTYQRRREGGQEEDACHLPQNQTDGGEVVQDVNSSVQMVMMEQLDPTLLQMKTEVMEGTVAPEAEAAVDDTQIITLQVVNMEEQPINIGELQLVQVPVPVTVPVATTSVEELQGAYENEVSKEGLAESEPMICHTLPLPEGFQVVKVGANGEVETLEQGELPPQEDPSWQKDPDYQPPAKKTKKTKKSKLRYTEEGKDVDVSVYDFEEEQQEGLLSEVNAEKVVGNMKPPKPTKIKKKGVKKTFQCELCSYTCPRRSNLDRHMKSHTDERPHKCHLCGRAFRTVTLLRNHLNTHTGTRPHKCPDCDMAFVTSGELVRHRRYKHTHEKPFKCSMCDYASVEVSKLKRHIRSHTGERPFQCSLCSYASRDTYKLKRHMRTHSGEKPYECYICHARFTQSGTMKMHILQKHTENVAKFHCPHCDTVIARKSDLGVHLRKQHSYIEQGKKCRYCDAVFHERYALIQHQKSHKNEKRFKCDQCDYACRQERHMIMHKRTHTGEKPYACSHCDKTFRQKQLLDMHFKRYHDPNFVPAAFVCSKCGKTFTRRNTMARHADNCAGPDGVEGENGGETKKSKRGRKRKMRSKKEDSSDSENAEPDLDDNEDEEEPAVEIEPEPEPQPVTPAPPPAKKRRGRPPGRTNQPKQNQPTAIIQVEDQNTGAIENIIVEVKKEPDAEPAEGEEEEAQPAATDAPNGDLTPEMILSMMDR
